The values that follow come from PMC11667809.

The chains behind the UniProt entries cited, without tags or fusion partners.
UniProt P25440: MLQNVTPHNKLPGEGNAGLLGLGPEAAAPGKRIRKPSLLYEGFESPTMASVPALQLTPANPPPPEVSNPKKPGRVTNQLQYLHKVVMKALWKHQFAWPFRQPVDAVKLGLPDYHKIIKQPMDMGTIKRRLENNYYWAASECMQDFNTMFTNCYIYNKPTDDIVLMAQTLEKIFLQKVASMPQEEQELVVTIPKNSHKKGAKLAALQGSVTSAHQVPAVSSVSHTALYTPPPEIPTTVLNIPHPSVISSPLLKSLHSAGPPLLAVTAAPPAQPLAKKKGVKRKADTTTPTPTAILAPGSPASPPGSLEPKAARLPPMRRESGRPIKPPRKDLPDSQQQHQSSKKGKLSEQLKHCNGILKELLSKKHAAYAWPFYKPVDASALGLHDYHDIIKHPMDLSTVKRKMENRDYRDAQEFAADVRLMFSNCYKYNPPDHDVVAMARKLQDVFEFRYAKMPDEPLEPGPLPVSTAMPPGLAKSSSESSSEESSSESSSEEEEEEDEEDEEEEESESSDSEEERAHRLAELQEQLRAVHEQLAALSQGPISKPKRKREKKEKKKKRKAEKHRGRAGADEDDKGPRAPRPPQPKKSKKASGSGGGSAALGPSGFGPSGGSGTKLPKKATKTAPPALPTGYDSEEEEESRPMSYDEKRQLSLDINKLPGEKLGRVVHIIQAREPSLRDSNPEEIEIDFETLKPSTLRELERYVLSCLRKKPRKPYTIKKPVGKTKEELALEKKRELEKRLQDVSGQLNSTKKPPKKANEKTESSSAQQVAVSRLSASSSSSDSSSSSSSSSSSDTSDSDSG
UniProt P98177: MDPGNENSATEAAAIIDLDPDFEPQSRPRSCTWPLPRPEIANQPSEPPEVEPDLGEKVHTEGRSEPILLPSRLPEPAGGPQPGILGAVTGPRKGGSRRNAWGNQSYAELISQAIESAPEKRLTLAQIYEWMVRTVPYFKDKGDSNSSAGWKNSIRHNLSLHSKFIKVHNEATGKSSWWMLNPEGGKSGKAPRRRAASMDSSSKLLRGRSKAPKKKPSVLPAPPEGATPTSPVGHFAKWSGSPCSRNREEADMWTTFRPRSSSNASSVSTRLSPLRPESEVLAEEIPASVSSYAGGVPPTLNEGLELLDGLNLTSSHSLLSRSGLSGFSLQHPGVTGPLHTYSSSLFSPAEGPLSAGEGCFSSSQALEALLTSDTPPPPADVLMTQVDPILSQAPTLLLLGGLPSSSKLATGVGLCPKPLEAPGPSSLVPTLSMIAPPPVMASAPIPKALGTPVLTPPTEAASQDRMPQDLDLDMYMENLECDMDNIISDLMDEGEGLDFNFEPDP

Results are given in words; binding and its absence hold for the method and conditions named. Binding seen in cells or lysates may run through a third protein. Here binding means that the protein was enriched with, or labelled near, the bait; the list need not be complete.

The experiment deals with Bromodomain-containing protein 2 (human) (UniProt P25440). In words: affinity purification with mass spectrometry; COIP-MS of BRD2; hits overlapped with predicted transcription factors of FLIP; cells and conditions not told.

As to “FOXO4 wild-type (from UniProt P98177 1-505)”, the binding entry is given as “binds”.
